The assay deals with β-arrestin 2 (not stated (EPCs from human umbilical cord blood or mouse bone marrow)) (UniProt P32121). The assay can be described thus: co-IP; Pierce Co-Immunoprecipitation kit; Arrb2 antibody (25 μg, ab206972) immobilised on resin; 500 μg EPC protein, overnight at 4°C; eluate examined by Western blotting for ERK1/2 and Akt. (A western blot detects proteins with antibodies after separation by electrophoresis.)

By UniProt entry, the sequences of proteins in these tests, tags left out.
UniProt P32121: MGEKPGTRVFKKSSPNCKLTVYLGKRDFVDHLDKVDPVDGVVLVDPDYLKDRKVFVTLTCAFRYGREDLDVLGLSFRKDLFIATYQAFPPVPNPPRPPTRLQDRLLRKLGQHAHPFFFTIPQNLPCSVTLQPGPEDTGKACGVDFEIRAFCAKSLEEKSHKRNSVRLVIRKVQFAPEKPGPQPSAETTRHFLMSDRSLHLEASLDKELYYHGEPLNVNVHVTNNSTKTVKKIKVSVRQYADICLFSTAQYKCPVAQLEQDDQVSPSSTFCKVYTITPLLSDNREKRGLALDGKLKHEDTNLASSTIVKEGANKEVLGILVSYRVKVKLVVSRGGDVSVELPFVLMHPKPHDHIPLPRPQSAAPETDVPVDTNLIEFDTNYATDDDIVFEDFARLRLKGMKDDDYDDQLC
UniProt P27361: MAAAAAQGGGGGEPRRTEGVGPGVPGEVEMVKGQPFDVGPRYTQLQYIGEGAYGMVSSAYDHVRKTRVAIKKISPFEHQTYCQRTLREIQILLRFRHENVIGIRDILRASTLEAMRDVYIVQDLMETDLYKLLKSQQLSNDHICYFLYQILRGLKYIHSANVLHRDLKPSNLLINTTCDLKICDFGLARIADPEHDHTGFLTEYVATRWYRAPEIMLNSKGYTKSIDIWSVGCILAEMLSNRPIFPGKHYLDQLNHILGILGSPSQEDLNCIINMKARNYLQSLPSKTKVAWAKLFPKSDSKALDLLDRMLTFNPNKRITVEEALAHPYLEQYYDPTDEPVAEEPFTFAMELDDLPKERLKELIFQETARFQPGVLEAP
UniProt P28482: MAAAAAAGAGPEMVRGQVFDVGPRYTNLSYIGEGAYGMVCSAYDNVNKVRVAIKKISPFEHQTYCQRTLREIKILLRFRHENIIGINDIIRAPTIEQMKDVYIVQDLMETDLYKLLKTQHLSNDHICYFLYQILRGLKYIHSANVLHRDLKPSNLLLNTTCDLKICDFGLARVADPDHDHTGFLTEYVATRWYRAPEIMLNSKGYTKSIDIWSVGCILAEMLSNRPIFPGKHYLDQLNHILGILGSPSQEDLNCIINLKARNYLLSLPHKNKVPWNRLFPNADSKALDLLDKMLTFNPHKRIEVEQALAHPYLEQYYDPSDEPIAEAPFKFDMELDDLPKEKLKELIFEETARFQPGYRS

Results are given in words; binding and its absence hold for the method and conditions named. Binding seen in cells or lysates may run through a third protein. Some results given as binding are weak or reduced against the parent protein; the word gives no strength.

With “extracellular signal-regulated kinase 1 (from UniProt P27361 1-379) (enzyme)”, the binding result is “binds”.

On to “extracellular signal-regulated kinase 2 (from UniProt P28482 1-360) (enzyme)”, for which the binding entry is reported as “binds”.

The record behind these values is paper PMC7449919.
